Measurements: patent US7915220B2, “Peptidomimetic agents from dextrorotatory amino acids as well as pharmaceutical agents that contain the latter for treatment of neurodegenerative diseases” (JSW-Research Forschungslabor GmbH, priority 2006, dated 2011)
Not every detail of the peptide structures is certain; ends, links or a residue may be inferred. Where a SMILES comes first, the peptide text is derived from it. [ ]: non-standard residue; d: D form.

Tested on: SHSY-5Y cells
Assay: MTT test, injury of differentiated SHSY-5Y cells with pre-aggregated Aβ-1-42
Assay type: cell-based
Conditions: 50 μmol vGek + 10 μmol aggregated Aβ-1-42 (5:1)
Experimental: To examine the action of the peptidomimetic agent according to the invention in a relevant biological system, injury tests were performed in cell cultures with Aβ-1-42 (β-amyloid). Differentiated SHSY-5Y cells were used as cell culture systems.
The cells that were still not differentiated were cultivated in 96-well plates at 37° C. in an atmosphere in DMEM/F12 (Cambrex) that contains 5% CO2 until confluence is completed. For differentiation, the following medium composition was selected: 10 μmol of All-Trans-retinoic acid, 10% FBS, 4 mmol of L-glutamine, 200 units/ml of penicillin, 200 μg/ml of streptomycin, 0.5% DMSO in MEM non-essential amino acids (e.g., Cambrex). After 8 days in the differentiation medium, 3×10^5 cells/cm^2 in the form of a monolayer were present.
Before the application, the test substances were irradiated for 10 minutes in a form already dissolved in culture medium. This medium contained 2% FBS (fetal bovine serum) and was free of phenol red, retinoic acid and DMSO.
Aβ-1-42 was pre-aggregated before the addition for 24 hours at room temperature while being shaken lightly. […]
Then, the medium was carefully emptied, and the formazan crystals that were produced were dissolved with a DMSO/ethanol solution (4:1). Finally, the color intensity obtained was measured at 550 nm in an ELISA reader. […]

In the case of `CC(C)[C@@H](N)C(=O)NCC(=O)N[C@H](CCC(=O)O)C(=O)N[C@H](CCCCN)C(=O)O` [vGek, Dval-gly-Dglu-Dlys] (H-[dV]G[dE][dK]-OH; N-terminus and C-terminus assumed), the “protection against damage of SHSY-5Y cells produced by Aβ-1-42” value is reported as “almost completely prevent the damage”.
